Some of these results come from one statement about several compounds together.
Experiment: Jaundice observation and blood tests T-bilirubin, GOT, GPT (Example 7)
Assay type: in vivo
Settings: 13th week after treatment

Nc1ccn([C@@H]2O[C@H](CO)[C@@H](O)C2(F)F)c(=O)n1 [gemcitabine]
number of experimental mice showing the symptom of jaundice: 1 to 2

From patent US12194015B2, “Composition comprising ferrous amino acid particles and method for treating or ameliorating pancreas-related disease using the same” (priority 2018, dated 2025)
